For at least one entry, the source does not settle the construct or the ends of the probe.
Test system: p53D30 + GST-hdm2(1-188) (G-M) ternary complex (Homo sapiens)
Assay: EMSA
Conditions: ternary p53D30-G-M-DNA complex, same binding buffer, 30 min 22 C; hdm2 binds via p53; purified recombinant protein; protein details: GST (S. japonicum, pGEX-2T) N-terminal on hdm2; label: 33P 5' end

## AGCTTAGACATGCCTAGACATGCCTA / AGCTTAGGCATGTCTAGGCATGTCTA [p53 consensus site oligonucleotide I/II]
  binding result: binds

Source: patent US6492116
